No constants are given. Whether binding was seen depends on the method and setting. Some binding calls cover weakened binding; strength is not graded here.
Columns and labels:
[1] = biological target: prostate specific membrane antigen (PSMA) (human) (UniProt Q04609); test: Western blot on LNCaP (PSMA+) cell lysate
[2] = biological target: prostate specific membrane antigen (PSMA) (human) (UniProt Q04609); test: flow cytometry binding curve on LNCaP cells
[3] = biological target: prostate specific membrane antigen (PSMA) (human) (UniProt Q04609); test: immunofluorescence on fixed LNCaP cells, 10 ug/ml antibody

The chains behind the UniProt entries cited, without tags or fusion partners.
UniProt Q04609: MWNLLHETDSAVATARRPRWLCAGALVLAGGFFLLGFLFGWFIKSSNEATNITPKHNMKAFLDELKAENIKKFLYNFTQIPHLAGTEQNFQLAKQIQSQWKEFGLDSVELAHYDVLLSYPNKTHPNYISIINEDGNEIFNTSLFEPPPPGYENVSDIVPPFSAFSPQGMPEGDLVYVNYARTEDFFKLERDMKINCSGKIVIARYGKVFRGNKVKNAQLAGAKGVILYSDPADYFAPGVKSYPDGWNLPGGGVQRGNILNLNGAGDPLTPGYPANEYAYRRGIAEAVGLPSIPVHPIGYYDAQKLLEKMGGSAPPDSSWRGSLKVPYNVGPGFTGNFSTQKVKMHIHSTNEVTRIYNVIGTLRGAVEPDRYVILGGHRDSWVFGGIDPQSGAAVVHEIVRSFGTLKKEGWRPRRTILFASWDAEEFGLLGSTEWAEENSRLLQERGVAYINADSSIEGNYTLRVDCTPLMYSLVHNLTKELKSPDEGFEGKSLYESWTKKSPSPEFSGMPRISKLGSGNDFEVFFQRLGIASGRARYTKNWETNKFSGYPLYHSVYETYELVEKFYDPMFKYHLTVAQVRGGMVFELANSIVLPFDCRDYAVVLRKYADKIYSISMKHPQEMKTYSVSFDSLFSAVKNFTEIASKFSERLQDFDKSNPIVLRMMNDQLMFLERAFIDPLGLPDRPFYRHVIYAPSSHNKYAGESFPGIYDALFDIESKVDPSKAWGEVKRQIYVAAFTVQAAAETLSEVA

binding [1]: binds
binding [2]: binds
binding [3]: binds
B1: monoclonal antibody D2/B (antibody, V domains shown)
VH: EVKLQESGPGLVKPSQSLSLTCSVTGYSITSGYYWNWIRQFPGNKLEWMGSISFDGNNNYNPSLRNRISITRDTSKNQFFLKLNSVTTEDTATYYCAREGDYYGSSFFTYWGQGTLVTVS
VL: DIVMTQSPASLSASVGETVTLTCGASENIYGALNWYQRKQGKSPQLLIYGATNLADGMSSRFSGSGSGRQYSLKISSLHPDDVATYYCQNVFRTYTFGGGTKLEIKR
